Data: publication PMC4809290
No constants are given. Whether binding was seen depends on the method and setting. For some assays here: Binding seen in cells or lysates may run through a third protein. Some entries that bind do so weakly or less than the wild type. Where a sequence is shown, tags or fusion partners need not be part of it.

Amino acid sequences for entries named in this document (tags omitted).
UniProt Q39204: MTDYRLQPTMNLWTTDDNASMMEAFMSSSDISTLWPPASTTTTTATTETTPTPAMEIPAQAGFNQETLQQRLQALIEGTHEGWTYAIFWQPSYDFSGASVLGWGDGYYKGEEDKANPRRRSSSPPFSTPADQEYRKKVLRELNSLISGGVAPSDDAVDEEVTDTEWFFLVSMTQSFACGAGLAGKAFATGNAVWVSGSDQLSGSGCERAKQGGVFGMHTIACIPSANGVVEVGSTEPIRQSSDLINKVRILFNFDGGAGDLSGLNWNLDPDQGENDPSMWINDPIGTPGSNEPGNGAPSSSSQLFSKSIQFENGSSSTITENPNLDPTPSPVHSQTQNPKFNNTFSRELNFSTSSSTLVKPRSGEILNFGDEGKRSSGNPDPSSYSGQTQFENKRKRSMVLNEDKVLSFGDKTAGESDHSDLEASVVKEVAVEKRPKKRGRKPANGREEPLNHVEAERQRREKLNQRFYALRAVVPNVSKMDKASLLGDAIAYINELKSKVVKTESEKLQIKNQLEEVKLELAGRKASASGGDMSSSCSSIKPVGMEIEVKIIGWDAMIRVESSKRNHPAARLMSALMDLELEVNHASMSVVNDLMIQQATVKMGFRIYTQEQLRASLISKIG
UniProt O49687: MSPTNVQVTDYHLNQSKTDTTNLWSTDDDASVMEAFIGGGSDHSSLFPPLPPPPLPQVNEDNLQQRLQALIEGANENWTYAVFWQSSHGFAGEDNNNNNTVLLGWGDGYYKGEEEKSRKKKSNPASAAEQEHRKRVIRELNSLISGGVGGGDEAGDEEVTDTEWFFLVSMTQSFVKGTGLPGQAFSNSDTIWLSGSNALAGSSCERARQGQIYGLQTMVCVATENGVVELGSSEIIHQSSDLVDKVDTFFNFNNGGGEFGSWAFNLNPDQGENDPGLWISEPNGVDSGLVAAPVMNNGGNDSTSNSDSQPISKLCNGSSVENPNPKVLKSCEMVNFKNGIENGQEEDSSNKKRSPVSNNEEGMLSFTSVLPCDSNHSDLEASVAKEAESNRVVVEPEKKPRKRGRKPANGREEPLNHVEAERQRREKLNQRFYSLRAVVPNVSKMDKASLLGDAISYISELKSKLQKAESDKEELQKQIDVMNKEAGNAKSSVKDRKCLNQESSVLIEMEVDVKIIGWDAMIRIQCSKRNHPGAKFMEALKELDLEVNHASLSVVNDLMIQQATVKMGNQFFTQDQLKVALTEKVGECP
UniProt Q9FIP9: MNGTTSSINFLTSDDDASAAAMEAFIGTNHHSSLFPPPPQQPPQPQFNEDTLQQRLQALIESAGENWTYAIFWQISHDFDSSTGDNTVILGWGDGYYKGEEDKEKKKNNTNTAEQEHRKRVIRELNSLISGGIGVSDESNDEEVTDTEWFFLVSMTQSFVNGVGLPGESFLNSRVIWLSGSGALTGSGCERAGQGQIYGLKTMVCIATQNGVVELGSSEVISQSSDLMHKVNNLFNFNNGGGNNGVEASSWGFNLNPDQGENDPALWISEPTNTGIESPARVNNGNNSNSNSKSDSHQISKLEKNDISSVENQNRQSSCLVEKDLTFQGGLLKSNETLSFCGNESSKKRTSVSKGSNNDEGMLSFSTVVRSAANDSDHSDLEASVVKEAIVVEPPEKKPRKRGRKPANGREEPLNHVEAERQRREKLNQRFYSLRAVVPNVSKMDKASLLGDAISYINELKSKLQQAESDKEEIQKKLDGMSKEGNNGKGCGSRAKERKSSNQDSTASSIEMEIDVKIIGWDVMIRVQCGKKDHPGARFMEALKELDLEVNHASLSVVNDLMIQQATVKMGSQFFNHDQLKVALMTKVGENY

T1: TOPLESS (TPL), yeast two-hybrid fusion (Arabidopsis thaliana (accession Col-0)) (UniProt Q94AI7)
T1 sequence: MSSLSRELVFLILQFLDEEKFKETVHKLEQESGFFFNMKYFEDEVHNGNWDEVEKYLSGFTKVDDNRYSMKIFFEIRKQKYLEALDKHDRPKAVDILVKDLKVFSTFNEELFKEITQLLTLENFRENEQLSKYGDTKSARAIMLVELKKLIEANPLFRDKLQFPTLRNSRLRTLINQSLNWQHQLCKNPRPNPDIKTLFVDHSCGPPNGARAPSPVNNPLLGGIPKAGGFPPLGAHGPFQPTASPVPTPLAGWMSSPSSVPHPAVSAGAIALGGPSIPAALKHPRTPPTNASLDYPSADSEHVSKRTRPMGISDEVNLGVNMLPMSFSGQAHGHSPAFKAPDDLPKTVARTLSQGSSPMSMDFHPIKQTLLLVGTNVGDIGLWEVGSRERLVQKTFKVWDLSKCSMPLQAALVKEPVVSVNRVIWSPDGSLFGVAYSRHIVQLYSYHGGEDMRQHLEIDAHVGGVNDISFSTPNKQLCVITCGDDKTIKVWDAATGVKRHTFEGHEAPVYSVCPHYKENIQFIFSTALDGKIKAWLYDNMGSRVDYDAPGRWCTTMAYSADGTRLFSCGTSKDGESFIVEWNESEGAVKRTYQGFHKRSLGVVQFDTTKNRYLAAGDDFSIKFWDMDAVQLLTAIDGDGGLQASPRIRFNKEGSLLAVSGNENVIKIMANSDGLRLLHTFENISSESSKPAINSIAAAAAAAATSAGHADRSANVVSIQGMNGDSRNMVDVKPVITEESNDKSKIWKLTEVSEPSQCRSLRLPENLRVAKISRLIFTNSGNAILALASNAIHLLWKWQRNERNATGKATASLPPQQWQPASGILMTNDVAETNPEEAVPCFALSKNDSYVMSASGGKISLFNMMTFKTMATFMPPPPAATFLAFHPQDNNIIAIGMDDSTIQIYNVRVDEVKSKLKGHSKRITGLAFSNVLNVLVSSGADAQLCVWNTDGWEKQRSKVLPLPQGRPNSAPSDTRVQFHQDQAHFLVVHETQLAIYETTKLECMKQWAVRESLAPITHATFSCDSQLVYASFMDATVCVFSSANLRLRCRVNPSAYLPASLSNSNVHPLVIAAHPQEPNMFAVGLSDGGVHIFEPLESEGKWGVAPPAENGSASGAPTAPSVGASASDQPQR

T2: JAZ8 with C-terminal YFP tag (Arabidopsis thaliana (accession Col-0)) (UniProt Q8LBM2)
T2 sequence: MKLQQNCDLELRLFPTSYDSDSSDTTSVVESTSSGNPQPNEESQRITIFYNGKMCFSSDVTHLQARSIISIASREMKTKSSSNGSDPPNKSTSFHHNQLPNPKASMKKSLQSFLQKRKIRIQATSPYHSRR


Key:
[1] = molecular target: MYC2, yeast two-hybrid fusion (Arabidopsis thaliana (accession Col-0)) (UniProt Q39204); assay: two-hybrid; Clontech Matchmaker system, yeast strain AH109; vectors derived from pGADT7 and pGBKT7; selective SD-Leu-Trp-His or SD-Leu-Trp-His-Ade media
[2] = molecular target: T1, TOPLESS (TPL), yeast two-hybrid fusion (Arabidopsis thaliana (accession Col-0)); assay: as above
[3] = molecular target: MYC4, yeast two-hybrid fusion (Arabidopsis thaliana (accession Col-0)) (UniProt O49687); assay: as above
[4] = molecular target: MYC3, yeast two-hybrid fusion (Arabidopsis thaliana (accession Col-0)) (UniProt Q9FIP9); assay: as above
[5] = molecular target: T2, JAZ8 with C-terminal YFP tag (Arabidopsis thaliana (accession Col-0)); assay: co-IP; transient expression in N. benthamiana leaves, harvested 2 d post-inoculation; total protein extracts incubated with GFP-affinity matrix (Chromotek); immunoblots with anti-GFP and anti-c-Myc

| Binder | binding [1] | binding [2] | binding [3] | binding [4] | binding [5] |
| --- | --- | --- | --- | --- | --- |
| JAZ8, yeast two-hybrid fusion (protein, UniProt Q8LBM2 1-131) MKLQQNCDLELRLFPTSYDSDSSDTTSVVESTSSGNPQPNEESQRITIFYNGKMCFSSDVTHLQARSIISIASREMKTKSSSNGSDPPNKSTSFHHNQLPNPKASMKKSLQSFLQKRKIRIQATSPYHSRR | binds | binds | binds | binds | – |
| TOPLESS (TPL) with C-terminal 4xMyc tag (protein, UniProt Q94AI7 1-1131) MSSLSRELVFLILQFLDEEKFKETVHKLEQESGFFFNMKYFEDEVHNGNWDEVEKYLSGFTKVDDNRYSMKIFFEIRKQKYLEALDKHDRPKAVDILVKDLKVFSTFNEELFKEITQLLTLENFRENEQLSKYGDTKSARAIMLVELKKLIEANPLFRDKLQFPTLRNSRLRTLINQSLNWQHQLCKNPRPNPDIKTLFVDHSCGPPNGARAPSPVNNPLLGGIPKAGGFPPLGAHGPFQPTASPVPTPLAGWMSSPSSVPHPAVSAGAIALGGPSIPAALKHPRTPPTNASLDYPSADSEHVSKRTRPMGISDEVNLGVNMLPMSFSGQAHGHSPAFKAPDDLPKTVARTLSQGSSPMSMDFHPIKQTLLLVGTNVGDIGLWEVGSRERLVQKTFKVWDLSKCSMPLQAALVKEPVVSVNRVIWSPDGSLFGVAYSRHIVQLYSYHGGEDMRQHLEIDAHVGGVNDISFSTPNKQLCVITCGDDKTIKVWDAATGVKRHTFEGHEAPVYSVCPHYKENIQFIFSTALDGKIKAWLYDNMGSRVDYDAPGRWCTTMAYSADGTRLFSCGTSKDGESFIVEWNESEGAVKRTYQGFHKRSLGVVQFDTTKNRYLAAGDDFSIKFWDMDAVQLLTAIDGDGGLQASPRIRFNKEGSLLAVSGNENVIKIMANSDGLRLLHTFENISSESSKPAINSIAAAAAAAATSAGHADRSANVVSIQGMNGDSRNMVDVKPVITEESNDKSKIWKLTEVSEPSQCRSLRLPENLRVAKISRLIFTNSGNAILALASNAIHLLWKWQRNERNATGKATASLPPQQWQPASGILMTNDVAETNPEEAVPCFALSKNDSYVMSASGGKISLFNMMTFKTMATFMPPPPAATFLAFHPQDNNIIAIGMDDSTIQIYNVRVDEVKSKLKGHSKRITGLAFSNVLNVLVSSGADAQLCVWNTDGWEKQRSKVLPLPQGRPNSAPSDTRVQFHQDQAHFLVVHETQLAIYETTKLECMKQWAVRESLAPITHATFSCDSQLVYASFMDATVCVFSSANLRLRCRVNPSAYLPASLSNSNVHPLVIAAHPQEPNMFAVGLSDGGVHIFEPLESEGKWGVAPPAENGSASGAPTAPSVGASASDQPQR | – | – | – | – | binds |
